From article PMC8837555, “CRISPR and biochemical screens identify MAZ as a cofactor in CTCF-mediated insulation at Hox clusters” come the findings set out here.

Assay [1] deals with T1, FLAG-CTCF (CCCTC-binding factor, mouse cDNA, expressed in 293FT) (mouse) (UniProt Q61164).
T1 sequence: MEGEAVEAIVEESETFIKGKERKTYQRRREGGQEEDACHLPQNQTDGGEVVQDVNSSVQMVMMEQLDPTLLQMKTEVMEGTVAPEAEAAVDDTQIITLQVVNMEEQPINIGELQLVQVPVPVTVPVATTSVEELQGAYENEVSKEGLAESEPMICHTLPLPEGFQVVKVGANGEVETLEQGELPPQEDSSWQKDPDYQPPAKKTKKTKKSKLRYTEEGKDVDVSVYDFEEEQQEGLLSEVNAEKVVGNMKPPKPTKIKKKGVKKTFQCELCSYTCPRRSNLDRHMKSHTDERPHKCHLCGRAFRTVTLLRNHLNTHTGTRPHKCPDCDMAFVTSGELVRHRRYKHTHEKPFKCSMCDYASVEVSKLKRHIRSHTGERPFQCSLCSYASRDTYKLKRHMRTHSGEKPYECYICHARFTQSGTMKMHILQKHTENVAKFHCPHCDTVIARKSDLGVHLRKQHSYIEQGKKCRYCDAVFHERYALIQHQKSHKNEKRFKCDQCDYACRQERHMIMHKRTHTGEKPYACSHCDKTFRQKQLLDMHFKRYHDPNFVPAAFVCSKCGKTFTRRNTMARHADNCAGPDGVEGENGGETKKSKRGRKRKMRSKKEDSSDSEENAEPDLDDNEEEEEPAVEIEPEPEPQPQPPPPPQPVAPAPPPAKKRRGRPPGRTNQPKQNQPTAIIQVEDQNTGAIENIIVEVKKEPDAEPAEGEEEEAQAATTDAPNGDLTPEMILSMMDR
Nature of the assay: co-IP; FLAG affinity purification from nuclear extract (BA450 buffer: 20 mM HEPES, 450 mM NaCl, 5% glycerol, 0.2 mM EDTA) of transfected 293FT cells, FLAG peptide elution, western blot; 4 °C or on ice.

In assay [2] the target is T2, FLAG-MAZ (Myc-associated zinc-finger protein, mouse cDNA) (mouse) (UniProt P56671).
T2 sequence: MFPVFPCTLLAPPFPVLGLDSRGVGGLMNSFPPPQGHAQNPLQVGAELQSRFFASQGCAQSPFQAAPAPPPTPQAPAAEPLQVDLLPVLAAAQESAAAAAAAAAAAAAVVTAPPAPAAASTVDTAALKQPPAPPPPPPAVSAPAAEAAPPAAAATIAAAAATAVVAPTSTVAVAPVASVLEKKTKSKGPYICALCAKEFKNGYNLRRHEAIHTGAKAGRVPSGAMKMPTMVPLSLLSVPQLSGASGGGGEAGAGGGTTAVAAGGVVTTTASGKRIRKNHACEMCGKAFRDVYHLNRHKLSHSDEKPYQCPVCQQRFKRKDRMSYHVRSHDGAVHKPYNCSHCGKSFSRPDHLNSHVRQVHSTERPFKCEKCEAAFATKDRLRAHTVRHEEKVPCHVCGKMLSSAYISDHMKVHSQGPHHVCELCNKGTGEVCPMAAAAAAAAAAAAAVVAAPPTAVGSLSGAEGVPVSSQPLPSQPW
Described as above.

Results are given in words; binding and its absence hold for the method and conditions named. Binding seen in cells or lysates may run through a third protein. Some results given as binding are weak or reduced against the parent protein; the word gives no strength. Sequences can lack the tags named with a protein.

B1: RAD21 (cohesin subunit) (protein, UniProt O60216 1-631)
chain: MFYAHFVLSKRGPLAKIWLAAHWDKKLTKAHVFECNLESSVESIISPKVKMALRTSGHLLLGVVRIYHRKAKYLLADCNEAFIKIKMAFRPGVVDLPEENREAAYNAITLPEEFHDFDQPLPDLDDIDVAQQFSLNQSRVEEITMREEVGNISILQENDFGDFGMDDREIMREGSAFEDDDMLVSTTTSNLLLESEQSTSNLNEKINHLEYEDQYKDDNFGEGNDGGILDDKLISNNDGGIFDDPPALSEAGVMLPEQPAHDDMDEDDNVSMGGPDSPDSVDPVEPMPTMTDQTTLVPNEEEAFALEPIDITVKETKAKRKRKLIVDSVKELDSKTIRAQLSDYSDIVTTLDLAPPTKKLMMWKETGGVEKLFSLPAQPLWNNRLLKLFTRCLTPLVPEDLRKRRKGGEADNLDEFLKEFENPEVPREDQQQQHQQRDVIDEPIIEEPSRLQESVMEASRTNIDESAMPPPPPQGVKRKAGQIDPEPVMPPQQVEQMEIPPVELPPEEPPNICQLIPELELLPEKEKEKEKEKEDDEEEEDEDASGGDQDQEERRWNKRTQQMLHGLQRALAKTGAESISLLELCRNTNRKQAAAKFYSFLVLKKQQAIELTQEEPYSDIIATPGPRFHII
B1: the binding result in assay [1] and in assay [2] was “binds” each time.
